From patent US7882135B2, “Method for predicting treatment classes using behavior informatics” (Psychogenics, Inc., priority 2001, dated 2011)
At least one compound was matched to its structure with a doubt left.

Tested on: mice
Assay: Transition matrix analysis of behavior of drug-treated mice, coded by human observers (FIG. 13)
Type: in vivo
Conditions: normalized transition matrix vs control

SMILES: CNC1=Nc2ccc(Cl)cc2C(c2ccccc2)=[N+]([O-])C1 [CDP, chlordiazepoxide]
- rearing overall (rear-x transitions): increased overall
- transitions in which rearing was followed by rearing, directed burying, grooming and immobility: increased
